# From the supplement of paper PMC10849652
# Amino acid sequences for entries named in this document (tags omitted). A change or cut given only in a name is not applied to a line headed by its entry.
# UniProt Q96DX7: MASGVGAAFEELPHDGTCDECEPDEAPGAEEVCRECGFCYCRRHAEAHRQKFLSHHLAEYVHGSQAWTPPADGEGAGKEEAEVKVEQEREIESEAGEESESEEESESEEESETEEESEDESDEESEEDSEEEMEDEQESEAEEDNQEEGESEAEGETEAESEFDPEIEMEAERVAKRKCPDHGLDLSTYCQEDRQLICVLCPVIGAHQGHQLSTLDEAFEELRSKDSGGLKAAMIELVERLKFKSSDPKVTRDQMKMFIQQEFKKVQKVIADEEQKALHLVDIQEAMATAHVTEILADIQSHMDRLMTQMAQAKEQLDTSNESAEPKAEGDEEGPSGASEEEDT
# UniProt P49815: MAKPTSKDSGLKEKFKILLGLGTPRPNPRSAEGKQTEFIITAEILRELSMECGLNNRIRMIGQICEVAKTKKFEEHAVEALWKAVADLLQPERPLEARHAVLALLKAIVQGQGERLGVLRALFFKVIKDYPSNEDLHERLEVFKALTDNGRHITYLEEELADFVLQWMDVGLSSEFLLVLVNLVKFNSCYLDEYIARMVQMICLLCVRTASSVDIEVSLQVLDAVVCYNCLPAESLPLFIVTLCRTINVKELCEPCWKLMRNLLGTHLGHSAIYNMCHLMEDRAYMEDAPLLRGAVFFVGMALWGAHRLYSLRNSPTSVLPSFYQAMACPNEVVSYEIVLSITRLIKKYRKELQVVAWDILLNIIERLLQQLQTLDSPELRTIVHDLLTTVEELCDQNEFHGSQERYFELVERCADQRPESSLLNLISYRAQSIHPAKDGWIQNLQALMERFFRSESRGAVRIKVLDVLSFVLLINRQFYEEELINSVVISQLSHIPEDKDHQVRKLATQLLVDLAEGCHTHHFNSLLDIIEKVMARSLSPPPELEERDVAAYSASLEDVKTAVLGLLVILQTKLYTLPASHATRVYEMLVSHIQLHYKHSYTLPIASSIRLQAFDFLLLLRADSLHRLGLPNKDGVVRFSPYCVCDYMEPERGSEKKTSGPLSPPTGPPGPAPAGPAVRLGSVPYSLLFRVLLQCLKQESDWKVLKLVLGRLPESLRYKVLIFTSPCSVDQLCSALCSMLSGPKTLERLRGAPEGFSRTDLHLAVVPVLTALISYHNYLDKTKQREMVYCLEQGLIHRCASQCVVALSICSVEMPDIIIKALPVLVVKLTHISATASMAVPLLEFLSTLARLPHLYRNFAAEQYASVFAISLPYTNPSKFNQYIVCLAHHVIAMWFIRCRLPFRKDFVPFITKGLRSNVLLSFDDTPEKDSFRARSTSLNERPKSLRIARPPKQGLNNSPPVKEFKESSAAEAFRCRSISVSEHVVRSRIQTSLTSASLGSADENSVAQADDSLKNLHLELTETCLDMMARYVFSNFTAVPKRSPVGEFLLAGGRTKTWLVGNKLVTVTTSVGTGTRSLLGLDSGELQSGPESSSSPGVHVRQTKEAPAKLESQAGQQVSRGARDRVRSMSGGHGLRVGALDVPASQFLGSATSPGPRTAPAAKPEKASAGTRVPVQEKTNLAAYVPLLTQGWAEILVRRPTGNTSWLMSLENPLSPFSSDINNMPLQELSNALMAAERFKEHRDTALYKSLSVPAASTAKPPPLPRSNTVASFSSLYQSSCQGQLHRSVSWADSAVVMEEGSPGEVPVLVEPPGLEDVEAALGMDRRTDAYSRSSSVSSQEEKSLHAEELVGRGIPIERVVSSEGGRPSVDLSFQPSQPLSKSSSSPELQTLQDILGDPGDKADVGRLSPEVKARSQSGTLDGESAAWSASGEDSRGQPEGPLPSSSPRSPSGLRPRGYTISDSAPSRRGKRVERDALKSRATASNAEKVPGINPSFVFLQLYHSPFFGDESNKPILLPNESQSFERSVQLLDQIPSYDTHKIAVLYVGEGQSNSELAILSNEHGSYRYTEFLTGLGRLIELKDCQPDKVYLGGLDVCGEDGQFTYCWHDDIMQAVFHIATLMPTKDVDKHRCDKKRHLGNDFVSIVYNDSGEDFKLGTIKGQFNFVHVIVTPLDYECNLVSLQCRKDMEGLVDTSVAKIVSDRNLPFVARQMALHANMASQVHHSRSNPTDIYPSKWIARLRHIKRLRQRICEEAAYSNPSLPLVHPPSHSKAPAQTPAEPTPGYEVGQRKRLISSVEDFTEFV
# UniProt Q8IZ69: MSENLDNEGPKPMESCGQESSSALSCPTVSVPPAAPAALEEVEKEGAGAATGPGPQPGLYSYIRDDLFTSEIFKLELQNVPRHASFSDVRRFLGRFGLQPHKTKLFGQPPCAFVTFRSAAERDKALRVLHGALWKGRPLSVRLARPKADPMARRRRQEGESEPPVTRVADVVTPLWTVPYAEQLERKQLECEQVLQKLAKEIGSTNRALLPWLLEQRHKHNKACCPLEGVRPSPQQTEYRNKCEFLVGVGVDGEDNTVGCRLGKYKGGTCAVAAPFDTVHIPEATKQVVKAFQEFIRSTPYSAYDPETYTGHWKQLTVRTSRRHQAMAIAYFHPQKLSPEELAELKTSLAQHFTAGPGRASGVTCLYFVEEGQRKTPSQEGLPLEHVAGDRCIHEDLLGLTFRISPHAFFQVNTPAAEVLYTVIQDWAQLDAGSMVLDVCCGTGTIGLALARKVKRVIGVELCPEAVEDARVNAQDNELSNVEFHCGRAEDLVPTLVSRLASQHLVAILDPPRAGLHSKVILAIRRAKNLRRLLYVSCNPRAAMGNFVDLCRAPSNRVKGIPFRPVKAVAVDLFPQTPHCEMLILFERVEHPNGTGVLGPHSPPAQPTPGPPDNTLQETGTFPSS
# UniProt O14773: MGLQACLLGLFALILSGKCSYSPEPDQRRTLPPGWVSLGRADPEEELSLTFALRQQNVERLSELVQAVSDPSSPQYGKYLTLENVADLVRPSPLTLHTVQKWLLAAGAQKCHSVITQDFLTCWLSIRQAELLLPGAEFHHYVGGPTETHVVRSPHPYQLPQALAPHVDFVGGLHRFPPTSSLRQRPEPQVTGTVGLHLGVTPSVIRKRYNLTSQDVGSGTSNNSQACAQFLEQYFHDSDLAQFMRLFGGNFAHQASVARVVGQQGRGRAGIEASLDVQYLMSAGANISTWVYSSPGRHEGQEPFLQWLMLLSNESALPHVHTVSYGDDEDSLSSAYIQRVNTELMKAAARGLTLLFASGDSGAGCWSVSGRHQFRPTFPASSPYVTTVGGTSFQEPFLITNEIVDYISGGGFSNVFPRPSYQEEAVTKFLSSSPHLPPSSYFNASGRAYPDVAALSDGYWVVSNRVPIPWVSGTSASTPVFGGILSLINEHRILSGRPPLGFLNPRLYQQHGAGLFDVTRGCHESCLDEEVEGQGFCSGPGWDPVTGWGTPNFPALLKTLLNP
# UniProt Q5T2D2: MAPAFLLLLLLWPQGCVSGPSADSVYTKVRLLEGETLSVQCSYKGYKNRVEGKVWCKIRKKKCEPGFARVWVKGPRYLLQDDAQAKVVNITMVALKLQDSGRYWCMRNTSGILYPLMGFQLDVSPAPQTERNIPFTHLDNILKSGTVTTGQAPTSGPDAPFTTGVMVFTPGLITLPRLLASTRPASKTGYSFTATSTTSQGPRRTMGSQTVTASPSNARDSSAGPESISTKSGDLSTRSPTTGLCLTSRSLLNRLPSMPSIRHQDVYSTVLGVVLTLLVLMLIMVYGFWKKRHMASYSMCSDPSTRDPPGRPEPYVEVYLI
# UniProt Q15642: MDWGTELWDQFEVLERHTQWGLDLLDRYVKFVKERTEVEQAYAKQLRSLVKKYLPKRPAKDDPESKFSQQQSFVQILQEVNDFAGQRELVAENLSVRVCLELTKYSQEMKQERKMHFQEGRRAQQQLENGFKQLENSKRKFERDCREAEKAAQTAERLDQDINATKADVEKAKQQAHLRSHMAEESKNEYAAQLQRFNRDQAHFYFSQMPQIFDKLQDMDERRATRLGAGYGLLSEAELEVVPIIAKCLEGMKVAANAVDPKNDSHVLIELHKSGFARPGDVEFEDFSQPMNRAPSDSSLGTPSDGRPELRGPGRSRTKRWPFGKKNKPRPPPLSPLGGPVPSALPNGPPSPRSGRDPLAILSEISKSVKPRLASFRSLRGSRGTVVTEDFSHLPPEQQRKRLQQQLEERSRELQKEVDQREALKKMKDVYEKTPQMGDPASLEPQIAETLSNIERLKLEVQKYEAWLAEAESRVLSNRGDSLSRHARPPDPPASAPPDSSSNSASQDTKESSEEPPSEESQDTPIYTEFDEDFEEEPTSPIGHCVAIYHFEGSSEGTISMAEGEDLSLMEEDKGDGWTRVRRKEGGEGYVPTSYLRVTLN
# UniProt Q13263: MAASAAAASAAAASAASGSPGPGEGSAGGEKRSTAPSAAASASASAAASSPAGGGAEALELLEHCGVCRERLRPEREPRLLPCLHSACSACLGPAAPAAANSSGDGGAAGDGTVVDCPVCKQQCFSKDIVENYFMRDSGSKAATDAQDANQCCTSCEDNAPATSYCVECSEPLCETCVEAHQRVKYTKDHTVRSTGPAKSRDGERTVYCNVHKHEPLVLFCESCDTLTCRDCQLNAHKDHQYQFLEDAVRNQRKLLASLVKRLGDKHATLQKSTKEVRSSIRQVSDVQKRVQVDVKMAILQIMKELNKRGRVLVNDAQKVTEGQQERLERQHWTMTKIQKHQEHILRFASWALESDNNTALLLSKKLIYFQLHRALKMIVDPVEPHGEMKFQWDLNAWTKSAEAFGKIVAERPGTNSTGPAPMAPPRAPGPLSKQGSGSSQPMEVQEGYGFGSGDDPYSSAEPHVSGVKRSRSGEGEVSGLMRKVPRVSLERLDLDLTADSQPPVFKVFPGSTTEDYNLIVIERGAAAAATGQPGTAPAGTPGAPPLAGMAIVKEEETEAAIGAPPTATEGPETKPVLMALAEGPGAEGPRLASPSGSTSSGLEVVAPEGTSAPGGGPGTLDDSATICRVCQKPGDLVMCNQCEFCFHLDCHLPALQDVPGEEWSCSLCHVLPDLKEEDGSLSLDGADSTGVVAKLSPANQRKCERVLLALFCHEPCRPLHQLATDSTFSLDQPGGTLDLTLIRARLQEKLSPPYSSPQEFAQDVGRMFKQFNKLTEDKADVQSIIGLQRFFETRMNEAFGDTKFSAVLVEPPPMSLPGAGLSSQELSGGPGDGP
# UniProt Q86W33: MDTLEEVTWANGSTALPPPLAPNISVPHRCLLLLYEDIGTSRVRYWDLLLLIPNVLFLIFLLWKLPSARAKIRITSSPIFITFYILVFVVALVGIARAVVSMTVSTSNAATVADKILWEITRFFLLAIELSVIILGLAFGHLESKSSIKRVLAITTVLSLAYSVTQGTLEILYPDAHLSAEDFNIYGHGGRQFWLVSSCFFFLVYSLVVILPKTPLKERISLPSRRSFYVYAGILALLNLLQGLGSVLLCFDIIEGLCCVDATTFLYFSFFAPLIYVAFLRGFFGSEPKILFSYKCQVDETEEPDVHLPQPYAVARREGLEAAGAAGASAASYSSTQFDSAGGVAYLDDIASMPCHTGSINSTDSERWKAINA
# UniProt Q14142: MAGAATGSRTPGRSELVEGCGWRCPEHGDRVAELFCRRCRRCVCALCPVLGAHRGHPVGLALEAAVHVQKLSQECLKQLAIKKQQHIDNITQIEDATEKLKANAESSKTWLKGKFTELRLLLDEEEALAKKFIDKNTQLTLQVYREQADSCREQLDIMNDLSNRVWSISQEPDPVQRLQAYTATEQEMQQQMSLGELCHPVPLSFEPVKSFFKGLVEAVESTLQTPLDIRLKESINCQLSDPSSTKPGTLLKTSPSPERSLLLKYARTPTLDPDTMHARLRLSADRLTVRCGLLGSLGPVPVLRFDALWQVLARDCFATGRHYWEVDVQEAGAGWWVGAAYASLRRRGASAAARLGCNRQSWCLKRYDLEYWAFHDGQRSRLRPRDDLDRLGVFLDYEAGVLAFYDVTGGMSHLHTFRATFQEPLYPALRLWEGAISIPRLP
# UniProt Q96GJ1: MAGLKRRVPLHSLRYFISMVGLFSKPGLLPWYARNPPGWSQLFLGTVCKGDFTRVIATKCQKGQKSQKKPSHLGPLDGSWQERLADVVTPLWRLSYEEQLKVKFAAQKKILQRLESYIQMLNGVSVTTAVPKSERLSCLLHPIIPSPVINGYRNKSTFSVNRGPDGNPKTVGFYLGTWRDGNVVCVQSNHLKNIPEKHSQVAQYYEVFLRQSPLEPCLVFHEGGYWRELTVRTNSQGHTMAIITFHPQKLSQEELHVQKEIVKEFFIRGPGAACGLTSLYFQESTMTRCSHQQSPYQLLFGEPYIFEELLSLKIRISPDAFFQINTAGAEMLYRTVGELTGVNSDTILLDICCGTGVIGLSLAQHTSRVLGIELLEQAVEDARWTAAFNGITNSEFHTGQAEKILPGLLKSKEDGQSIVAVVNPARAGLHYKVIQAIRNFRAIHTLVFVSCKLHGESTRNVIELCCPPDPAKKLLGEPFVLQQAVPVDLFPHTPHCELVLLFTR
# UniProt Q9H496: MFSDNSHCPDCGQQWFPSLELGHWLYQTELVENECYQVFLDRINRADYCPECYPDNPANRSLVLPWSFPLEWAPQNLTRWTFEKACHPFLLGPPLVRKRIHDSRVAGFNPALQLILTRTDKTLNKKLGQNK
# This is one part of the list.
# Experiments:
# Assay in all cases: log2 fold change, soluble protein after heating vs DMSO (PISA); higher = thermal stabilisation; K562 cells, 10 uM, 30 min; active = over 0.2 and 3.5 SD of the protein, either way, in both replicates (recomputed)
# [1] = compound: CS(=O)(=O)c1ccc(-c2cnc(N)c(C(=O)Nc3ccccc3)n2)cc1
# How it was run: (§1)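 K562 cells (2×10^6 cells/mL) were treated with 10 μM compound for 30 min, and aliquots were heated for 3 min over 48°C-58°C. Pooled aliquots were extracted in PBS with 0.5% NP-40 at 4°C, and the supernatant after 21,000xg for 90 min was measured by TMTpro 16plex LC-MS/MS with channel sums equalised. Reported thermal stability, relative to control samples and from duplicates, is a log2 fold change.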
# crizotinib = compound: C[C@@H](Oc1cc(-c2cnn(C3CCNCC3)c2)cnc1N)c1c(Cl)ccc(F)c1Cl [crizotinib]
# How it was run: as §1
# [2] = compound: C[C@@H]1COCCN1C2=NC(=NC(=C2)C3(CC3)S(=O)(=O)C)C4=C5C=CNC5=CC=C4
# How it was run: as §1
# gandotinib = compound: Cc1cc(Nc2cc(CN3CCOCC3)c3nc(C)c(Cc4ccc(Cl)cc4F)n3n2)n[nH]1 [gandotinib]
# How it was run: as §1
# doramapimod = compound: Cc1ccc(-n2nc(C(C)(C)C)cc2NC(=O)Nc2ccc(OCCN3CCOCC3)c3ccccc23)cc1 [doramapimod]
# How it was run: as §1
# bafetinib = compound: Cc1ccc(NC(=O)c2ccc(CN3CC[C@H](N(C)C)C3)c(C(F)(F)F)c2)cc1Nc1nccc(-c2cncnc2)n1 [bafetinib]
# How it was run: as §1
# [3] = compound: Cc1cccc(CC(=O)N2CCc3c2ccc(-c2cn(C)c4ncnc(N)c24)c3F)n1
# How it was run: as §1
# mubritinib = compound: FC(F)(F)c1ccc(/C=C/c2nc(COc3ccc(CCCCn4ccnn4)cc3)co2)cc1 [mubritinib]
# How it was run: as §1
# [4] = compound: C[C@H](C1=CC=C(C=C1)C(=O)NC2=C3C=CNC3=NC=C2)N
# How it was run: as §1
# [5] = compound: Cc1cc(SCc2sc(-c3ccc(C(F)(F)F)cc3)nc2C)ccc1OCC(=O)O
# How it was run: as §1
# ispinesib = compound: Cc1ccc(C(=O)N(CCCN)[C@@H](c2nc3cc(Cl)ccc3c(=O)n2Cc2ccccc2)C(C)C)cc1 [ispinesib]
# How it was run: as §1
# nilotinib = compound: Cc1cn(-c2cc(NC(=O)c3ccc(C)c(Nc4nccc(-c5cccnc5)n4)c3)cc(C(F)(F)F)c2)cn1 [nilotinib]
# How it was run: as §1
# [6] = compound: Cc1nc(Nc2n[nH]c3c2CN(C(=O)N[C@H](CN(C)C)c2ccccc2)C3(C)C)c2sccc2n1
# How it was run: as §1
# dasatinib = compound: Cc1nc(Nc2ncc(C(=O)Nc3c(C)cccc3Cl)s2)cc(N2CCN(CCO)CC2)n1 [dasatinib]
# How it was run: as §1
# [7] = compound: Cc1ncc(-c2ccnc(Nc3ccc(S(C)(=O)=O)cc3)n2)n1C(C)C
# How it was run: as §1
# [8] = compound: Cn1cc(-c2ccc3c(c2)CCN3C(=O)Cc2cccc(C(F)(F)F)c2)c2c(N)ncnc21
# How it was run: as §1
# [9] = compound: Cn1cc(-c2ccc3nnc(C(F)(F)c4ccc5ncccc5c4)n3n2)cn1
# How it was run: as §1
# tipifarnib = compound: Cn1cncc1[C@@](N)(c1ccc(Cl)cc1)c1ccc2c(c1)c(-c1cccc(Cl)c1)cc(=O)n2C [tipifarnib]
# How it was run: as §1
# duvelisib = compound: C[C@H](Nc1ncnc2nc[nH]c12)c1cc2cccc(Cl)c2c(=O)n1-c1ccccc1 [duvelisib]
# How it was run: as §1
# tozasertib = compound: Cc1cc(Nc2cc(N3CCN(C)CC3)nc(Sc3ccc(NC(=O)C4CC4)cc3)n2)n[nH]1 [tozasertib]
# How it was run: as §1
Target,log2 fold change [1],log2 fold change (crizotinib),log2 fold change [2],log2 fold change (gandotinib),log2 fold change (doramapimod),log2 fold change (bafetinib),log2 fold change [3],log2 fold change (mubritinib),log2 fold change [4],log2 fold change [5],log2 fold change (ispinesib),log2 fold change (nilotinib),log2 fold change [6],log2 fold change (dasatinib),log2 fold change [7],log2 fold change [8],log2 fold change [9],log2 fold change (tipifarnib),log2 fold change (duvelisib),log2 fold change (tozasertib)
TOM1 (UniProt O60784),inactive: -0.04,inactive: -0.054,inactive: -0.05,inactive: -0.018,inactive: 0.052,inactive: -0.288,inactive: -0.105,inactive: -0.222,,,,,,,,,,,,
TRIM44 (UniProt Q96DX7),inactive: 0.013,inactive: 0.083,,inactive: 0.045,inactive: -0.004,inactive: -0.033,inactive: -0.01,inactive: 0.065,inactive: -0.059,inactive: 0.024,inactive: 0.03,inactive: -0.024,inactive: -0.023,inactive: -0.029,inactive: 0.026,inactive: 0.002,inactive: 0.051,inactive: -0.041,,
TSC2 (UniProt P49815),inactive: -0.09,inactive: 0.065,inactive: -0.139,inactive: -0.091,inactive: 0.09,inactive: -0.024,inactive: 0.109,inactive: -0.048,inactive: 0.218,,inactive: 0.012,,,,,inactive: 0.066,inactive: 0.047,inactive: 0.019,,
TRPC4AP (UniProt Q8TEL6),inactive: -0.191,inactive: -0.018,inactive: -0.049,inactive: -0.02,inactive: 0.104,,inactive: -0.081,inactive: 0.097,,inactive: -0.035,inactive: -0.094,inactive: -0.025,inactive: 0.219,inactive: -0.04,inactive: -0.007,,inactive: -0.044,inactive: 0.171,inactive: 0.094,inactive: -0.032
TRIP11 (UniProt Q15643),inactive: 0.059,inactive: -0.006,inactive: 0.034,inactive: 0.308,inactive: -0.011,inactive: -0.049,inactive: 0.029,inactive: 0.064,,inactive: 0.037,inactive: -0.306,inactive: 0.151,inactive: 0.005,inactive: -0.337,inactive: 0.028,,inactive: -0.066,inactive: 0.054,inactive: -0.102,inactive: -0.01
TRMT61A (UniProt Q96FX7),inactive: -0.017,inactive: -0.046,inactive: -0.201,inactive: 0.168,inactive: 0.011,inactive: -0.051,inactive: 0.047,inactive: -0.125,inactive: 0.168,inactive: 0.106,inactive: -0.093,inactive: 0.036,inactive: 0.046,inactive: 0.011,inactive: -0.07,inactive: -0.11,inactive: -0.016,inactive: 0.043,,
TRMT2A (UniProt Q8IZ69),inactive: -0.034,inactive: -0.016,inactive: -0.072,inactive: 0.019,inactive: 0.07,inactive: 0.059,inactive: -0.001,inactive: -0.005,inactive: 0.152,inactive: 0.045,inactive: -0.122,inactive: 0.021,inactive: -0.048,inactive: -0.019,inactive: -0.064,inactive: 0,inactive: 0.009,inactive: 0.03,,
TPP1 (UniProt O14773),inactive: 0.025,active: -0.371,inactive: 0.022,inactive: 0.049,inactive: 0.008,active: -0.48,inactive: 0.007,inactive: -0.001,inactive: -0.026,inactive: -0.016,inactive: -0.189,inactive: 0.008,inactive: -0.031,inactive: -0.051,inactive: 0.022,inactive: -0.025,inactive: 0,inactive: 0.049,,
TREML2 (UniProt Q5T2D2),inactive: 0.182,inactive: -0.043,,,inactive: 0.14,inactive: 0.181,,inactive: 0.119,,inactive: 0.038,,,,inactive: -0.013,,,,,inactive: 0.04,
TRIP10 isoform 2 (UniProt Q15642),inactive: 0.132,inactive: 0.056,inactive: -0.007,inactive: 0.147,inactive: -0.035,inactive: -0.019,inactive: 0.026,inactive: 0.142,inactive: 0.108,inactive: -0.089,inactive: 0.309,inactive: 0.005,inactive: -0.174,inactive: 0.035,inactive: -0.162,inactive: -0.033,inactive: -0.135,inactive: -0.04,,
TRIM24 (UniProt O15164),inactive: 0.054,inactive: -0.036,inactive: 0.272,inactive: -0.102,inactive: -0.103,inactive: 0.05,inactive: -0.031,inactive: -0.005,,inactive: 0.125,inactive: 0,inactive: 0.028,inactive: -0.018,inactive: -0.242,inactive: -0.018,,inactive: -0.146,inactive: 0.137,inactive: 0.069,inactive: 0.291
TRIM28 (UniProt Q13263),inactive: -0.001,inactive: 0.046,inactive: 0.048,inactive: -0.033,inactive: -0.036,inactive: 0.005,inactive: 0.011,inactive: 0.009,inactive: -0.068,inactive: 0.039,inactive: -0.007,inactive: -0.013,inactive: -0.035,inactive: -0.014,inactive: 0.013,inactive: -0.02,inactive: 0.004,inactive: -0.035,,
TRIM27 (UniProt P14373),,,,inactive: 0.053,,,inactive: -0.149,,,,,,,,,,,,,
TRIT1 (UniProt Q9H3H1),,inactive: -0.186,,,inactive: 0.08,,,,inactive: 0.178,,,,,,,inactive: -0.058,,,,
TPRA1 (UniProt Q86W33),inactive: -0.036,,inactive: 0.213,inactive: 0.137,,,inactive: 0.046,inactive: 0.013,,,,inactive: 0.099,inactive: -0.153,,inactive: 0.058,,,,,
TPD52L2 isoform 3 (UniProt O43399),,,inactive: 0.547,inactive: -0.041,,,inactive: 0.14,inactive: -0.232,,,,inactive: -0.173,inactive: 0.23,,inactive: -0.109,,,,,inactive: 0.022
TRAPPC2 isoform 3 (UniProt P0DI81),,,,inactive: 0.04,,inactive: -0.05,inactive: -0.066,inactive: -0.007,inactive: -0.024,inactive: 0.026,inactive: -0.094,inactive: 0.017,inactive: -0.022,inactive: -0.021,inactive: -0.076,inactive: 0.001,inactive: -0.031,inactive: -0.041,inactive: 0.03,inactive: -0.117
TRAM2 (UniProt Q15035),inactive: 0.012,,,,,inactive: -0.23,,,inactive: -0.019,,,,,,,inactive: 0.014,,inactive: -0.403,,inactive: -0.013
TNRC6A (UniProt Q8NDV7),,,,,,,,inactive: 0.022,,,,,,,,,,,,
TNKS (UniProt O95271),,inactive: -0.081,,,inactive: 0.046,,,,,inactive: 0.135,,,,inactive: 0.066,,,,inactive: 0.105,inactive: -0.244,
TRIM14 (UniProt Q14142),,,,,,,,,,,,inactive: 0.042,inactive: -0.124,,inactive: -0.342,,,,,
TRMT2B (UniProt Q96GJ1),,,,inactive: 0.014,,inactive: 0.165,inactive: -0.027,inactive: 0.016,inactive: 0.024,inactive: 0.051,inactive: 0.016,inactive: -0.001,inactive: -0.003,inactive: -0.134,inactive: 0.129,inactive: -0.016,inactive: -0.019,inactive: 0.139,inactive: -0.013,inactive: 0.088
TOR1AIP2 (UniProt Q9H496),,,inactive: 0.013,,,inactive: -0.011,,inactive: -0.076,,,inactive: 0.084,inactive: 0.045,inactive: 0.172,,inactive: 0.012,,inactive: 0.256,,,
TPRG1L (UniProt Q5T0D9),inactive: 0.052,,inactive: -0.042,,,,,inactive: 0.07,,,inactive: -0.149,inactive: -0.094,inactive: -0.086,,inactive: -0.023,,inactive: -0.121,inactive: -0.042,,inactive: -0.252

# Shown bar-delimited: part of the list above.
Target | log2 fold change [1] | log2 fold change (crizotinib) | log2 fold change [2] | log2 fold change (gandotinib) | log2 fold change (doramapimod) | log2 fold change (bafetinib) | log2 fold change [3] | log2 fold change (mubritinib) | log2 fold change [4] | log2 fold change [5] | log2 fold change (ispinesib) | log2 fold change (nilotinib) | log2 fold change [6] | log2 fold change (dasatinib) | log2 fold change [7] | log2 fold change [8] | log2 fold change [9] | log2 fold change (tipifarnib) | log2 fold change (duvelisib) | log2 fold change (tozasertib)
TRMT2B (UniProt Q96GJ1) |  |  |  | inactive: 0.014 |  | inactive: 0.165 | inactive: -0.027 | inactive: 0.016 | inactive: 0.024 | inactive: 0.051 | inactive: 0.016 | inactive: -0.001 | inactive: -0.003 | inactive: -0.134 | inactive: 0.129 | inactive: -0.016 | inactive: -0.019 | inactive: 0.139 | inactive: -0.013 | inactive: 0.088
TOR1AIP2 (UniProt Q9H496) |  |  | inactive: 0.013 |  |  | inactive: -0.011 |  | inactive: -0.076 |  |  | inactive: 0.084 | inactive: 0.045 | inactive: 0.172 |  | inactive: 0.012 |  | inactive: 0.256 |  |  | 
